These results are taken from article PMC4422123.

Assay [1] addresses T1, 2HA-UOX, in vitro synthesized (mouse) (UniProt P25688).
T1 sequence (chain, 35S-methionine labelled): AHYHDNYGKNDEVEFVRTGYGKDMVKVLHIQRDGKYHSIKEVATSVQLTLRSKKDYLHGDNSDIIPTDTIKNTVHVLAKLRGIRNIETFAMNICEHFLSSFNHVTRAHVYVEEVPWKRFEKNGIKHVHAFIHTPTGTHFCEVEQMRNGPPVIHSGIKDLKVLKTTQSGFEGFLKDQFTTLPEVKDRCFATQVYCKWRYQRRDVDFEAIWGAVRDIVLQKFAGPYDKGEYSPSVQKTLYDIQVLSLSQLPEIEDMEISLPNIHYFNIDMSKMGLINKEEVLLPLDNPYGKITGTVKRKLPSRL
Briefly: condition: only with 1 µM recombinant PEX5 during co-synthesis and chase; co-IP; the two proteins co-synthesized and chased 4 h in the presence of 1 µM recombinant PEX5; anti-HA antibody agarose beads, 3 h at 4°C, buffer A.

For assay [2], the target named is T1, 2HA-UOX, in vitro synthesized (mouse). The assay is described as follows: condition: only synthesized individually and mixed before immunoprecipitation; co-IP; the two proteins synthesized individually in reticulocyte lysate and mixed just before immunoprecipitation; anti-HA antibody agarose beads, 3 h at 4°C, buffer A.
In assay [3] the target is urate oxidase (UOX), untagged, in vitro synthesized (mouse) (UniProt P25688). The assay is described as follows: condition: only synthesized for just 45 min, without chase; sucrose gradient centrifugation; 35S-labelled protein synthesized for a short time only (30 min ACOX1, 45 min UOX), no chase; 5-30% sucrose in buffer B (50 mM Tris-HCl pH 7.5, 150 mM NaCl, 1 mM EDTA, 1 mM DTT), 39 000 r.p.m., 29 h, 4°C; ovalbumin, BSA and IgGs as standards.

For assay [4], the target named is T1, 2HA-UOX, in vitro synthesized (mouse). The assay is described as follows: co-IP; untagged (or Flag-tagged) and 2HA-tagged protein co-synthesized in reticulocyte lysate without PEX5 (30 min for ACOX1, 45 min for UOX), chased 4 h with cycloheximide; PEX5 added before the IP to make samples identical; anti-HA antibody agarose beads, 3 h at 4°C, buffer A (50 mM Tris-HCl pH 8.0, 150 mM NaCl, 1 mM EDTA, 10% glycerol, 0.1% Triton X-100); SDS-PAGE/autoradiography.

No constants are given. Whether binding was seen depends on the method and setting. For some of these results: Binding seen in cells or lysates may run through a third protein. Some results given as binding are weak or reduced against the parent protein; the word gives no strength. Sequences can lack the tags named with a protein.

B1: urate oxidase (UOX), untagged, in vitro synthesized (protein, UniProt P25688 1-303)
chain: MAHYHDNYGKNDEVEFVRTGYGKDMVKVLHIQRDGKYHSIKEVATSVQLTLRSKKDYLHGDNSDIIPTDTIKNTVHVLAKLRGIRNIETFAMNICEHFLSSFNHVTRAHVYVEEVPWKRFEKNGIKHVHAFIHTPTGTHFCEVEQMRNGPPVIHSGIKDLKVLKTTQSGFEGFLKDQFTTLPEVKDRCFATQVYCKWRYQRRDVDFEAIWGAVRDIVLQKFAGPYDKGEYSPSVQKTLYDIQVLSLSQLPEIEDMEISLPNIHYFNIDMSKMGLINKEEVLLPLDNPYGKITGTVKRKLPSRL
modifications: 35S-methionine labelled
For the molecule B1, the binding result in assay [1] is “no binding”; in assay [2], “no binding”; in assay [3], “no binding”; in assay [4], “binds”.
